In assay [1] the target is human adenylyl cyclase-associated protein 1 (CAP1), wild type (human) (UniProt Q01518). Nature of the assay: immunoprecipitation of a multi-protein complex (FIG. 4P).
Assay [2] has the same target. Nature of the assay: BLItz system, direct binding to CAP1 (FIG. 2C); wild-type reference.
Assay [3] has as its target hPCSK9 fused to a non-fluorescent fragment of a fluorescent protein (pVN173) for bimolecular fluorescence complementation (human) (UniProt Q8NBP7). Description: bimolecular fluorescence complementation in living cells (FIG. 1C).
The target in assay [4] is human adenylyl cyclase-associated protein 1 (CAP1), wild type (human) (UniProt Q01518). Description: BLItz system, direct binding to CAP1 (FIG. 2C).
The target is the same in assay [5]. Description: in vitro co-immunoprecipitation, HEK293 cells (FIG. 1F).
The target is the same in assay [6]. Nature of the assay: surface plasmon resonance, direct binding analysis (FIG. 1E).
The target in assay [7] is caveolin-1 (immunoprecipitation experiment of FIG. 4P) (UniProt Q03135). Description: immunoprecipitation (FIG. 4P).
The target of assay [8] is wild-type PCSK9 (PCSK9 WT) (human) (UniProt Q8NBP7). Nature of the assay: co-immunoprecipitation, HEK293 cells (FIG. 1H).
Assay [9] concerns the target endogenous mouse PCSK9 (liver lysate of wild-type mice) (mouse) (UniProt Q80W65). Description: immunoprecipitation of endogenous proteins from mouse liver lysate (FIG. 1A).
The target in assay [10] is wild-type human PCSK9 with Flag tag (wtPCSK9-Flag) (human) (UniProt Q8NBP7). Nature of the assay: co-immunoprecipitation, HEK293 cells (FIG. 1G).
Assay [11] has as its target T1, endogenous mouse CAP1 (liver lysate of wild-type mice) (mouse) (UniProt P40124).
T1 sequence (looked up): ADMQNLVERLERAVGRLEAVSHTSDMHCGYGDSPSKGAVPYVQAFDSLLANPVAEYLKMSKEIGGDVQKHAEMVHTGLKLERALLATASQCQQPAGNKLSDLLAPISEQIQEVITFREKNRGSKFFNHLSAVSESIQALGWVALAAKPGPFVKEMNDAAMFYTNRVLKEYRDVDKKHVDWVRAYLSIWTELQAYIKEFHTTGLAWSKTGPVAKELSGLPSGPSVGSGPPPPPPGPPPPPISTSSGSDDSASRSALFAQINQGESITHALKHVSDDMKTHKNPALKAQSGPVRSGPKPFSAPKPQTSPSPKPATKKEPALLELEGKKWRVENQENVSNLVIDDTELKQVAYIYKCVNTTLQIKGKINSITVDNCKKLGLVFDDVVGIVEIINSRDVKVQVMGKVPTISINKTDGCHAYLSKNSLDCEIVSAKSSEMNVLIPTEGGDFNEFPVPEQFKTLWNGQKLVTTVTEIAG
Nature of the assay: immunoprecipitation from wild-type mouse liver lysates (FIG. 4Q).

Sequences of proteins named here, by UniProt entry; tags and fusion partners are left off. A change or cut given only in a name is not applied to a line headed by its entry. Residues count along the entry.
UniProt Q8NBP7: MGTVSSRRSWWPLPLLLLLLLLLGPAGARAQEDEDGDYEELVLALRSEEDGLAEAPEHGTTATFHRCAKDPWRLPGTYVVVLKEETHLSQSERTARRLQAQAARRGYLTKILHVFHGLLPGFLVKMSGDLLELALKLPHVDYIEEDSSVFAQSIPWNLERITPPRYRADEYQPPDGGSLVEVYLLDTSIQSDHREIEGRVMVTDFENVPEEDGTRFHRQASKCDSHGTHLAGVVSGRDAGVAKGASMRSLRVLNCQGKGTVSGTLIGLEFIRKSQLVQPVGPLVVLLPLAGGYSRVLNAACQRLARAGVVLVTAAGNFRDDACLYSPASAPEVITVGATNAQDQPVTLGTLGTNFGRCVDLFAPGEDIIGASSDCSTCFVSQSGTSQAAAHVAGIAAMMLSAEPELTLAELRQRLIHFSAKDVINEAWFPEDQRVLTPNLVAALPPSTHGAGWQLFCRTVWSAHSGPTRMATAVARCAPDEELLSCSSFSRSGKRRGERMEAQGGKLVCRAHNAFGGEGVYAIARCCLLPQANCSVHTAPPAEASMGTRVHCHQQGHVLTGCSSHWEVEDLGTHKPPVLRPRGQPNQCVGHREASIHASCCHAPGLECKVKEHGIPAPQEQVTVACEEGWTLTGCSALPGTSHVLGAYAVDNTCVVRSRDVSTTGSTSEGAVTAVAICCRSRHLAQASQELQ
UniProt Q80W65, residues 35-694: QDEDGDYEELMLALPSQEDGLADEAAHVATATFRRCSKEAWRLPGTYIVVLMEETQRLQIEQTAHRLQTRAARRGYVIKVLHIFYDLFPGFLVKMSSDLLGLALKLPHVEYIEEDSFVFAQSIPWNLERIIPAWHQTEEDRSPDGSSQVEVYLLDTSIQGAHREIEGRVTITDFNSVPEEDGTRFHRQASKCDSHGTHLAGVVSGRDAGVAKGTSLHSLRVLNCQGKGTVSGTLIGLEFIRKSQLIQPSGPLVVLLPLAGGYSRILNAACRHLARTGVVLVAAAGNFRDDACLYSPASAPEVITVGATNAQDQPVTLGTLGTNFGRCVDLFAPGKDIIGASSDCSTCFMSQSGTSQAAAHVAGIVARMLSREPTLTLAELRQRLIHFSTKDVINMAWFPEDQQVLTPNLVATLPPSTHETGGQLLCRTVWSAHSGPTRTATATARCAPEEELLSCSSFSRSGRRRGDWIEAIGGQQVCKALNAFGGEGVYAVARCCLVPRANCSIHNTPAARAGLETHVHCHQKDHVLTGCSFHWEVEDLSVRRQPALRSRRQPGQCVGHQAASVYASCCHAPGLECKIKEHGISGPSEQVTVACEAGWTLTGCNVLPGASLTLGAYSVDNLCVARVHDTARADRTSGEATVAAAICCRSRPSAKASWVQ

Results are given in words; binding and its absence hold for the method and conditions named. For part of these data: Binding seen in cells or lysates may run through a third protein. Some binding calls cover weakened binding; strength is not graded here.

Regarding “wild-type PCSK9 (PCSK9 WT) (from UniProt Q8NBP7 31-692) (enzyme)”, the binding entry in [1] and in assay [2] was “binds” each time. As to “hCAP1 fused to a non-fluorescent fragment of a fluorescent protein (pVC155) for bimolecular fluorescence complementation (from UniProt Q01518 1-475)”, the binding entry in [3] is listed as “binds”. Turning to “PCSK9 S668R G670E double variant (from UniProt Q8NBP7 31-692) (enzyme)”, the binding entry in assay [4] was “binds”. For the molecule “PCSK9 A514T variant (from UniProt Q8NBP7 31-692) (enzyme)”, the binding entry in assay [4] is listed as “binds”. Turning to “wild-type human PCSK9 with Flag tag (wtPCSK9-Flag) (from UniProt Q8NBP7 31-692) (enzyme)”, the binding result in [5] is “binds”. As for “recombinant human proprotein convertase subtilisin/kexin type-9 (rhPCSK9) (from UniProt Q8NBP7 31-692) (enzyme)”, the binding entry in assay [6] is on record as “binds”.

B1: human adenylyl cyclase-associated protein 1 (CAP1), wild type (other)
chain: MADMQNLVERLERAVGRLEAVSHTSDMHRGYADSPSKAGAAPYVQAFDSLLAGPVAEYLKISKEIGGDVQKHAEMVHTGLKLERALLVTASQCQQPAENKLSDLLAPISEQIKEVITFREKNRGSKLFNHLSAVSESIQALGWVAMAPKPGPYVKEMNDAAMFYTNRVLKEYKDVDKKHVDWVKAYLSIWTELQAYIKEFHTTGLAWSKTGPVAKELSGLPSGPSAGSGPPPPPPGPPPPPVSTSSGSDESASRSALFAQINQGESITHALKHVSDDMKTHKNPALKAQSGPVRSGPKPFSAPKPQTSPSPKRATKKEPAVLELEGKKWRVENQENVSNLVIEDTELKQVAYIYKCVNTTLQIKGKINSITVDNCKKLGLVFDDVVGIVEIINSKDVKVQVMGKVPTISINKTDGCHAYLSKNSLDCEIVSAKSSEMNVLIPTEGGDFNEFPVPEQFKTLWNGQKLVTTVTEIAG
notes: also called hCAP1; wtCAP1
In the case of B1, the binding entry in assay [7] and in [8] was “binds” each time.

B2: endogenous mouse CAP1 (liver lysate of wild-type mice) (protein, UniProt P40124 2-474, looked up)
chain: ADMQNLVERLERAVGRLEAVSHTSDMHCGYGDSPSKGAVPYVQAFDSLLANPVAEYLKMSKEIGGDVQKHAEMVHTGLKLERALLATASQCQQPAGNKLSDLLAPISEQIQEVITFREKNRGSKFFNHLSAVSESIQALGWVALAAKPGPFVKEMNDAAMFYTNRVLKEYRDVDKKHVDWVRAYLSIWTELQAYIKEFHTTGLAWSKTGPVAKELSGLPSGPSVGSGPPPPPPGPPPPPISTSSGSDDSASRSALFAQINQGESITHALKHVSDDMKTHKNPALKAQSGPVRSGPKPFSAPKPQTSPSPKPATKKEPALLELEGKKWRVENQENVSNLVIDDTELKQVAYIYKCVNTTLQIKGKINSITVDNCKKLGLVFDDVVGIVEIINSRDVKVQVMGKVPTISINKTDGCHAYLSKNSLDCEIVSAKSSEMNVLIPTEGGDFNEFPVPEQFKTLWNGQKLVTTVTEIAG
For B2, the binding result in assay [9] is recorded as “binds”.

B3: Src homology 3 binding domain (SH3BD) of CAP1, expressed alone (protein)
chain: LAWSKTGPVAKELSGLPSGPSAGSGPPPPPPGPPPPPVSTSSGSDESASRSALFAQINQGESITHALKHVSDDMKTHKNPALKAQSGPVRSGPKPFSAPKPQTSPSPKRATKKEPAVLELEGKKWR
Consider B3, for which the binding result in [10] was “binds”.

B4: endogenous mouse caveolin-1 (liver lysate of wild-type mice) (protein, UniProt P49817 2-178, looked up)
chain: SGGKYVDSEGHLYTVPIREQGNIYKPNNKAMADEVTEKQVYDAHTKEIDLVNRDPKHLNDDVVKIDFEDVIAEPEGTHSFDGIWKASFTTFTVTKYWFYRLLSTIFGIPMALIWGIYFAILSFLHIWAVVPCIKSFLIEIQCISRVYSIYVHTFCDPLFEAIGKIFSNIRISTQKEI
Regarding B4, in assay [11], the binding entry is reported as “binds”.
